The target in assay [1] is endogenous Fam20C of the lactating mouse mammary gland (mouse (endogenous in C57BL/6 mammary gland)) (UniProt Q5MJS3). In words: co-IP; endogenous proteins, ER/Golgi-enriched fraction of lactating mouse mammary gland, 100 mM NaCl and 1% Triton X-100 added; rabbit polyclonal anti-Fam20C for immunoprecipitation, normal rabbit IgG as control.
For assay [2], the target named is T1, V5-tagged Fam20A (Fam20A-V5), stably expressed in U2OS cells (human) (UniProt Q96MK3).
T1 sequence: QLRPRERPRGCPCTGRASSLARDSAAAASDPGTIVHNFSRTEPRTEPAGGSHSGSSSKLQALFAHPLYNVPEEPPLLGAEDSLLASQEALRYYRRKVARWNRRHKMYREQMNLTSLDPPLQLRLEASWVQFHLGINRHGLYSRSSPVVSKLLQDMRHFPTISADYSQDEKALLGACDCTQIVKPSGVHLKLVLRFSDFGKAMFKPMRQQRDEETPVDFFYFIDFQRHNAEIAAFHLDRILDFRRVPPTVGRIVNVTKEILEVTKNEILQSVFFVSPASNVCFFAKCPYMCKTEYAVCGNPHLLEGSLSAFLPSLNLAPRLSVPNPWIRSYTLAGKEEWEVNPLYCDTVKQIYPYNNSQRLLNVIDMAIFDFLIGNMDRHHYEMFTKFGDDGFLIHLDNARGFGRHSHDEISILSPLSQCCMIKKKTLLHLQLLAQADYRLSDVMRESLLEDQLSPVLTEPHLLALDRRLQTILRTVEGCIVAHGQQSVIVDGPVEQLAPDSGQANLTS
In words: co-IP; Flag- and V5-tagged proteins stably co-expressed in U2OS cells.

The chains behind the UniProt entries cited, without tags or fusion partners. Residues count along the entry.
UniProt Q5MJS3, residues 88-579: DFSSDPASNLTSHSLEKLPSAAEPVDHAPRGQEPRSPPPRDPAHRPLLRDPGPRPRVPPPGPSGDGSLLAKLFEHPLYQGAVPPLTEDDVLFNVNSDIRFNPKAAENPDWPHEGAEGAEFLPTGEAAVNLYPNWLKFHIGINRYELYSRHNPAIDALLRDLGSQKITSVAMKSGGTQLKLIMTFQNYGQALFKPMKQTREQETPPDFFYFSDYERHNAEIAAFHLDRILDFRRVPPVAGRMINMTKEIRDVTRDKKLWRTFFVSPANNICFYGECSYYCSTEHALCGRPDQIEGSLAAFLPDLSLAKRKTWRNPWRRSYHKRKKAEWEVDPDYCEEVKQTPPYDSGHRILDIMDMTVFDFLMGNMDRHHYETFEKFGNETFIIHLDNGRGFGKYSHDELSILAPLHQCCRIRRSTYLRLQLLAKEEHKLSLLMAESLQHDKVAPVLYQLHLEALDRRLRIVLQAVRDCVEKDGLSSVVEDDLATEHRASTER

In assay [3] the target is T2, V5-tagged Fam20B (Fam20B-V5), stably expressed in U2OS cells (human) (UniProt O75063).
T2 sequence: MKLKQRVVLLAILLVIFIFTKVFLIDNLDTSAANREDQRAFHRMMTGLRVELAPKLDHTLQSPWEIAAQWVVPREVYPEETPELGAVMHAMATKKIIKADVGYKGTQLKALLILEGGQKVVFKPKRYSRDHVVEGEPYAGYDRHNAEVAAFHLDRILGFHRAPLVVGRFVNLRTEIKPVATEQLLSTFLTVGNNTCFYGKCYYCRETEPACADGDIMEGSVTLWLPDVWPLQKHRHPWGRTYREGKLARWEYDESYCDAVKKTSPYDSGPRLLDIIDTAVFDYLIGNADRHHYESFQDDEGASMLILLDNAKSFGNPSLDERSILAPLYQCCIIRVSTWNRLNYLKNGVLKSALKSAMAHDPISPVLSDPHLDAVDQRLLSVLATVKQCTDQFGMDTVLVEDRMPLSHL
Described as above.

No constants are given. Whether binding was seen depends on the method and setting. In cells and extracts the contact can be indirect. Some binding calls cover weakened binding; strength is not graded here. For part of these data: Where a sequence is shown, tags or fusion partners need not be part of it.

This is an account of results in paper PMC4421793, “A secretory kinase complex regulates extracellular protein phosphorylation” (eLife, 2015).

B1: endogenous Fam20A of the lactating mouse mammary gland (protein, UniProt Q8CID3 34-541)
chain: QLRPGERPAACPCSGRAPSASLHSAAASRDLGTASHNFSGALPRVEHPSRGHPAPRSKLQALFAHSLYQVLEDPPLLGPEDWLLASQEALRYYRRKVARWNRRHKIYKEQFNLTSLDPPLQFRPEASWVQFHLGINSHGLYSRSSLAISKLLHDMRHFPTISADYSQDEKALLGACDCSQIVKPSGVHLKLVLRFSDFGKAMFKPMRQQREEETPEDFFYFIDFQRHNAEIAAFHLDRILDFRRVPPTVGRLVNVTKEILEVTKNEILQSVFFVSPANNVCFFAKCPYMCKTEYAVCGNPHLLEGSLSAFLPSLNLAPRLSVPNPWIRSYSLSGKEEWELNPLYCDTVKQIYPYNSSNRLLGIIDMAVFDFLIGNMDRHHYEMFTKFGDDGYLIHLDNARGFGRHSQDEISILAPLAQCCMIKRKTLLHLQLLAQADYRLSDVMRESLLEDQLSPVLTEPHLLALDRRLQIILKTVEDCIEAHGERRVIAEGSAQRSAPDSGQANLTS
Turning to B1, the binding entry in assay [1] is given as “binds”.

B2: Flag-tagged Fam20A (Fam20A-Flag), stably expressed in U2OS cells (protein, UniProt Q96MK3 34-541)
chain: T1 sequence
For B2, the binding entry in assay [2] is given as “binds”; in assay [3], “no binding”.
